Assay results taken from patent US5759768A, “Assays for factors affecting circularization of DNA, assays for factors affecting DNA integration, factors, and uses thereof” (priority 1995, dated 1998).
For at least one compound, name, drawing or mass did not settle the structure.

System: linear viral DNA (circularization)
Assay type: biochemical, HIV-1
Conditions: 37° C.
Procedure: The chronically HIV-1 infected Molt IIIB human T cell line (HTLV IIIB virus strain) was the source of virus for cell-free infections. This human T cell line constitutively produces a low level of the HTLV-111B strain of HIV-1. Culture supernatant containing a high concentration of virus was prepared by incubating 300×10^6 Molt IIIB cells in 50 ml fresh RPMI 1640 medium containing 20% fetal calf serum and 10 ng of phorbol 12-myristate 13-acetate per ml for 20-24 hours. […] Cytoplasmic extracts (3 ml) were prepared 4-4.5 hours post-infection, by a modification of the procedure of Brown et al., Cell 49: 342-356 (1987).
At specified times after infection, cells were washed twice with buffer K (20 mM Hepes, pH 7.4, 150 mM KCl, 5 mM MgCl2, 1 mM dithiothreitol, […]) and then lysed at a concentration of 33×10^6 cells per ml in the same buffer containing 0.025% digitonin or 0.025% Triton X-100. Cells were extracted for 10 minutes at room temperature, and the lysate was centrifuged at 1000×g for 3 minutes, and is referred to as "cytoplasmic extract". Cytoplasmic extract was the source of viral DNA for analyses in the assays described below. […]
Cell extracts were prepared from cells four to five hours after infection with HIV-1, using the above-described methods to yield fully functional viral preintegration complexes. […] Therefore, only LTR-containing DNA fragments are detected. […]

SMILES	KCl concentration of most efficient 2-LTR circle formation (1 mM ATP, 90 min)	circular DNA forms observed (1 mM, 45 min)
[Cl-].[K+] [KCl]	between 150 mM and 175	
Cc1cn([C@H]2C[C@H](N=[N+]=[N-])[C@@H](CO)O2)c(=O)[nH]c1=O [azidothymidine]		No circular DNA forms were observed
